Earlier results, collected in patent US5028715A, “Radioprotective agents and their method of manufacture” (priority 1989, dated 1991).
At least one compound was matched to its structure with a doubt left.

Test system: animals
Details: cited from earlier work

SMILES: NCCCNCCSP(=O)(O)O [WR 2721, S-(2-(3-aminopropylamino)ethyl phosphorothioate]
- antiradiation activity by oral dosage (in words): not active by oral dosage
